Publication PMC11842872
These are yes or no findings as the source states them, for the method shown. Binding seen in cells or lysates may run through a third protein. Some entries that bind do so weakly or less than the wild type. Sequences can lack the tags named with a protein.

Target: T1, HA-tagged HT-Rad21 (N-terminally HaloTag-tagged zebrafish cohesin subunit Rad21a) (zebrafish) (UniProt Q6TEL1)
T1 sequence: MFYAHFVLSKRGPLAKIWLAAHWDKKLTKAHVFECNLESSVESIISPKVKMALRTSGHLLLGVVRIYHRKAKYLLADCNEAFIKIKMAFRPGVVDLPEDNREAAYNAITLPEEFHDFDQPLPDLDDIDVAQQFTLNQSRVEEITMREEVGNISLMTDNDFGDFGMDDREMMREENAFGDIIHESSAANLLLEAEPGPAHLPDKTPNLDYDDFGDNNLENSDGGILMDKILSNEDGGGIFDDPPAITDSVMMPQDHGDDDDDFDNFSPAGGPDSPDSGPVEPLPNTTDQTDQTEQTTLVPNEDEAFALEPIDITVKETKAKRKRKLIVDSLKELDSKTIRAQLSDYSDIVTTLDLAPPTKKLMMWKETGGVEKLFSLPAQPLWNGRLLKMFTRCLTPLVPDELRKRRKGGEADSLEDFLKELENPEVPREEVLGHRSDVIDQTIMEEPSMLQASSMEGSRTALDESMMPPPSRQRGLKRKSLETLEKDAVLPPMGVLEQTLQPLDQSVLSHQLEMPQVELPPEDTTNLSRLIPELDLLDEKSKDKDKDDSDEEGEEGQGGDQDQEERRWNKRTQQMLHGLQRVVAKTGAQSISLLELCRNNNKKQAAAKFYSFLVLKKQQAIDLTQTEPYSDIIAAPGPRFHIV
Experiment: co-IP; anti-HA agarose beads (Pierce HA-Tag IP/Co-IP Kit) with lysate of about 165 deyolked shield-stage embryos in Pierce IP Lysis Buffer, incubated overnight; uninjected wild-type embryos as negative control; blots with anti-Smc3 and anti-HA

B1: Smc3 (protein, UniProt Q803N2 1-1216)
chain: MYIKQVIIQGFRSYRDQTVVDPFGSKHNVIVGRNGSGKSNFFYAIQFVLSDEFSHLRPEQRLALLHEGTGPRVISAFVEIIFDNSDNRLPIDKEEVSLRRVIGAKKDQYFLDKKMVTKNDVMNLLESAGFSRSNPYYIVKQGKINQMATAPDSQRLKLLREVAGTRVYDERKEESISLMKETEGKREKINELLKYIEERLHTLEDEKEELAQYQKWDKMRRALEYTIYNQELNETRAKLDELSSKRETCGDKSRQLRDAQQDARDKVEETERVVRELKSRISAMKEEKEQLSAERQEQIKQRTKLELKAKDLQDELAGNSEQRKRLLKERQKLLEKIEEKQKELQETEPKFNTVKEKEERGIARLAQATQERTDLYAKQGRGSQFTSKEERDKWIKKELKSLDQAINDKKRQIAAIHKDLEDTEQNKERNLEQYNKLDQDLNEVKTRVEELDKKYYEVKNRKDELQSERNYLWREENAEQQALAAKREDLEKKQQLLRAATGKAILNGIDSINKVLEHFRRKGINQHVINGYHGIVMNNFECEPAFYTCVEVTAGTRLFYHIVETDEVSTKILMEFNKMNLPGEVTFLPLSKLDVRDTAYPETNDAIPMISKLRYSQNFDKAFKHVFGKTLICRSMEVSTQLARAFTMDCITLEGDQVSHRGALTGGYYDTRKSRLELQKDMRKAEEELGELEAKLNENLRRNIETINNEIDQLMNQMQQIETQQRKFKASRDSILSEMKMLKEKRQQSEKTFMPKQRSLQSLEASLHAMESTRESLKAELGADLLSQLSLEDQRRVDDLNDEIRQLQQDNRQLLNERIKLEGIMTRVETYLNENLRKRLDQVEQELNELRETEGGTVLTATTSELDGINKRIKDTMARSEDLDTLIDKTEVEIKEHQKSMERWKNIEKEQNEAINHDTKELEKMTNRQGMLLKKKEECMKKIRELGSLPQEAFEKYQTLTLKQLFRKLEQCNTELKKYSHVNKKALDQFVNFSEQKEKLIKRQDELDRGYKSIMELMNVLELRKYEAIQLTFKQVSKNFSEVFQKLVPGGKATLVMKKGDTEGGQSQDEGEGGDSERASSSQSSVPSVDQFTGVGIRVSFTGKQGEMREMQQLSGGQKSLVALALIFAIQKCDPAPFYLFDEIDQALDAQHRKAASDMIMELAGHAQFITTTFRPELLESADKFYGVKFRNKVSHIDVISAEQAKDFVEDDTTHG
- binding: binds
